Data as given in PubChem BioAssay AID624291 (National Center for Advancing Translational Sciences (NCATS), 2012).
The whole screen tested about 350,000 compounds, of which about 220 (0.063%) were called active. Inconclusive results, whose numbers are uncertain, are shown with a selection of clear calls. The call rests on the fitted dose curve; in most records, active means well fitted activation curve with a large enough effect; inconclusive means small, poorly fitted or top-dose-only effect; inactive means no such curve, though single readings can be large or run the other way. Potencies of inconclusive entries are doubtful fits and often do not repeat.

Experiment: qHTS for Activators of Integrin-Mediated Alleviation for Muscular Dystrophy; further: nearly all actives have a fitted effect of over 60% in size;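 on activation: 100% = response of the positive control SU9516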
Conditions: alpha7betagal myoblasts, beta-gal FDG fluorescence, 48 h; activation: at 38.3 µM (top of the series)
Method in brief: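 alpha7betagal+/- myoblasts (passage 13, 250/well) treated 48 h at 37C with compounds at 1:260 dilution of DMSO stock. Lysed, then beta-galactosidase activity read as FDG fluorescence (ex 480/em 540) after 30 min, with pre-read for autofluorescence.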
Potency means the concentration at half of the fitted maximal effect.

Row | Structure (SMILES) | Potency | activation
1 | C=CCOc1ccc(Cl)cc1CNC1CCCC1 | inconclusive: 1 µM [activator, full curve, poor fit] | 
2 | COc1ccc(C(=O)/C(C#N)=N/Nc2ccc([N+](=O)[O-])cc2)cc1 |  | inactive: -46.8%
3 | NC(=NCCc1ccccc1)NS(=O)(=O)c1ccccc1F | inconclusive: 3.55 µM [activator, single point] | 
4 | COc1ccccc1CN1CC(C(=O)N(C)CCc2nc3ccc(F)cc3[nH]2)CCC1=O (centres undefined) | inconclusive: 3.55 µM [activator, single point] | 
5 | COc1ccc(S(=O)(=O)N2CCCC2)cc1C(=O)O | inconclusive: 11.2 µM [activator, single point] | 
6 | Cc1cc(NC(=O)CN2C(=O)/C(=C/c3ccccc3F)SC2=S)no1 | inconclusive: 5.62 µM [activator, partial curve] | 
7 | O=C(Nc1c2c(nn1-c1ccc(F)cc1)CS(=O)(=O)C2)c1ccc2c(c1)OCO2 | inconclusive: 0.447 µM [activator, partial curve, poor fit] | 
8 | CC(=NC1CC1)c1c(-c2ccccc2)[nH]n(-c2nc3ccccc3s2)c1=O |  | inactive: -6.5%
9 | COc1ccccc1N1CCN(C(=O)CCCn2c(=S)[nH]c3ccccc3c2=O)CC1 |  | inactive: -9.63%
10 | CC(=O)Nc1ccc(NC(=O)COc2ccc3c(c2)CCC3)cc1 | inconclusive: 20 µM [activator, single point] | 
11 | COC(=O)N1C(=O)[C@](c2ccc(Cl)cc2)(C(C)C)N1C(=O)OC | inconclusive: 12.6 µM [activator, single point] | 
12 | O=C(CN1C(=O)CSc2ccc(S(=O)(=O)N3CCOCC3)cc21)NCCCN1CCOCC1 |  | inactive: 6.41%
13 | O=C1OC(COCC#Cc2ccccc2)CN1c1ccccc1 (centres undefined) |  | inactive: 0.156%
14 | CCN(CC)c1ccc(S(=O)(=O)N2CCOCC2)cc1NC(=O)COC(=O)/C=C/c1ccccc1 |  | inactive: -13.5%
15 | CN(C)c1ccc(-n2cccc2/C=C2/SC(=Nc3ccc(F)cc3)NC2=O)cc1 | inconclusive: 28.2 µM [activator, single point] | 
16 | Cc1ccc(OCC(=O)O/N=C(\N)Cc2ccc(Cl)cc2)cc1 |  | inactive: -23.3%
17 | FC(F)Oc1ccccc1NC(=S)NCCc1ccccc1 |  | inactive: 5.53%
18 | Cc1ccc(Nc2n[nH]c(=S)s2)cc1F |  | inactive: 13.1%
19 | CCN(CC)C(=O)Cn1c(=O)n(Cc2ccc(F)cc2)c(=O)c2sccc21 | inconclusive: 28.2 µM [activator, single point] | 
20 | O=[N+]([O-])c1ccc(/C=N/Nc2nc(NCc3ccccc3)nc(N3CCOCC3)n2)cc1 | inconclusive: 14.1 µM [activator, single point] | 
21 | CC(=O)Nc1ccc(C(=O)COC(=O)c2ccco2)c(F)c1 |  | inactive: -15.6%
22 | O=C(Cn1sc2ccccc2c1=O)NC12CC3CC(CC(C3)C1)C2 |  | inconclusive: -46.5% [activator]
23 | CC(C)CCOCc1nc2sc3c(c2c(=O)[nH]1)CCC(C)C3 (centres undefined) |  | inactive: -4.22%
24 | O=C(c1ccc(Cn2cc([N+](=O)[O-])cn2)o1)N1CCCCCC1 | inconclusive: 20 µM [activator, partial curve, poor fit] | 
25 | Cc1ncsc1C(=O)Nc1nc2c(s1)CCCC2 | inconclusive: 14.1 µM [activator, single point] | 

Row | Structure (SMILES) | Potency | activation
26 | Cc1cccc2c1NC(=O)C2=Nc1ccc(Cl)cc1 | inconclusive: 10 µM [activator, single point] | 
27 | O=C(Cc1ccccc1)Nc1ccc(Br)c(Cl)c1 | inconclusive: 28.2 µM [activator, single point] | 
28 | COc1ccc(C(=O)NCc2ccc(S(N)(=O)=O)cc2)cc1[N+](=O)[O-] | inconclusive: 12.6 µM [activator, partial curve, poor fit] | 
29 | CCN(N=O)[C@@H](Cc1ccccc1)CN(N=O)[C@@H](Cc1ccccc1)CN(C)N=O |  | inactive: 23.7%
30 | CC(C)(C)c1ccc(OCCCCCCN2CCNCC2)cc1 |  | inactive: -78.1%
31 | CC(C)(C)c1ccc(C(=O)NCCC(=O)Nc2cc(Cl)ccc2N2CCOCC2)cc1 | inconclusive: 5.01 µM [activator, single point] | 
32 | CCOC(=O)c1ccc(NC(=O)c2c(NC(=O)CCC(=O)O)sc3c2CCCCC3)cc1 | inconclusive: 7.94 µM [activator, partial curve, poor fit] | 
33 | O=C(Nc1ccccc1[N+](=O)[O-])c1cc2ccccc2nc1Cl |  | inconclusive: -47.5% [activator]
34 | COc1ccc(N2CCN(c3ccc([N+](=O)[O-])cc3Cl)CC2)cc1 | inconclusive: 12.6 µM [activator, single point] | 
35 | COc1ccc(C(=O)N2CCN(S(=O)(=O)c3ccc4c(c3)OCCO4)CC2)cc1OC | inconclusive: 5.01 µM [activator, single point] | 
36 | Cc1ccc([N+](=O)[O-])cc1NC(=O)CN(C)CCOc1ccccc1 |  | inactive: 0.238%
37 | CN1CCN(S(=O)(=O)c2ccc(C(=O)NC3CCCCC3)cc2)CC1 |  | inconclusive: 59.4% [activator]
38 | CCCCCCCn1c2c(c(=N)c3c1CCC3)CCCC2 |  | inconclusive: -71.6% [activator]
39 | COc1ccc(CCNC(=O)COC(=O)c2cc(S(=O)(=O)NCc3ccccc3)ccc2O)cc1OC | inconclusive: 1.58 µM [activator, single point] | 
40 | O=c1[nH]c2ccccc2cc1CN(Cc1cccnc1)S(=O)(=O)c1ccc(Cl)cc1 |  | inactive: -7.05%
41 | Cc1c(-c2cccc(Cl)c2)nc2ccccc2c1C(=O)NC1CC1 | inconclusive: 14.1 µM [activator, partial curve, poor fit] | 
42 | COCCCNC(=S)Nc1cc(C)c(C)cc1C |  | inactive: 0%
43 | CC(=O)c1ccc(OCC(=O)N2CCN(S(=O)(=O)c3ccc(C)cc3C)CC2)cc1 |  | inactive: -9.84%
44 | Cn1c(CNC(=O)CNC(=O)c2ccccc2F)cc(=O)n(C)c1=O | inconclusive: 25.1 µM [activator, single point] | 
45 | Cc1ccc(S(=O)(=O)N2CCN(C(=O)COC(=O)COc3cccc4c3OC(C)(C)C4)CC2)cc1 |  | inactive: 10.4%
46 | Cc1ccc(-n2nc3c(N4CCC(C(=O)NCCc5cccs5)CC4)nnc(C)c3c2C)cc1 | inconclusive: 3.16 µM [activator, single point] | 
47 | O=S(=O)(c1ccc2ccccc2c1)N1CCOCC1 |  | inactive: 14.6%
48 | Cc1c(C(c2ccc(O)cc2)c2c(C)n(C)n(-c3ccccc3)c2=O)c(=O)n(-c2ccccc2)n1C | inconclusive: 28.2 µM [activator, single point] | 
49 | CN1C(=O)c2cccc3c(S(=O)(=O)Nc4ccccc4F)ccc1c23 |  | inactive: -23.4%
50 | CC(C)(C)c1nnc(NS(C)(=O)=O)s1 | inconclusive: 22.4 µM [activator, single point] | 

In another format: entries from further up
Row	Structure (SMILES)	Potency	activation
49	CN1C(=O)c2cccc3c(S(=O)(=O)Nc4ccccc4F)ccc1c23		inactive: -23.4%
50	CC(C)(C)c1nnc(NS(C)(=O)=O)s1	inconclusive: 22.4 µM [activator, single point]	

Retrieved by structure from the entries so far (2):
Row | Structure (SMILES) | Potency | activation
50 | CC(C)(C)c1nnc(NS(C)(=O)=O)s1 | inconclusive: 22.4 µM [activator, single point] | 
27 | O=C(Cc1ccccc1)Nc1ccc(Br)c(Cl)c1 | inconclusive: 28.2 µM [activator, single point] | 

Following part.

Row | Structure (SMILES) | Potency | activation
51 | O=C(CCS(=O)(=O)c1ccc(F)cc1)Nc1nc(-c2ccncc2)cs1 |  | inactive: -55.6%
52 | CCN1CNC(=S)N(c2ccccc2C)C1 | inconclusive: 2.82 µM [activator, single point] | 
53 | O=C(c1c(Cl)cccc1Cl)N1CCN(c2cccc3[nH]ccc23)CC1 | inconclusive: 3.16 µM [activator, partial curve, poor fit] | 
54 | CCN1CCN(C(c2ccc(C(F)(F)F)cc2)c2ccc3cccnc3c2O)CC1 (centres undefined) | inconclusive: 5.01 µM [activator, single point] | 
55 | CCCCCCOC1(c2ccccc2)OC(=O)c2ccccc21 (centres undefined) |  | inactive: -22.1%
56 | O=S(=O)(Cc1ccccc1)N1CCNCC1 |  | inconclusive: 90.5% [activator]
57 | Cc1nonc1CN(C)C(=O)c1cc(COc2ccc(F)cc2Cl)on1 | inconclusive: 10 µM [activator, partial curve, poor fit] | 
58 | Cc1nn(-c2ccccc2)c(N2CCCC2)c1/C=N/NC(=O)c1ccccc1O |  | inactive: -2.61%
59 | CCOc1ccccc1N(C(=O)c1ccccc1Cl)C1=NC(C)(C)CS1 |  | inactive: 6.3%
60 | CN(C)C(=O)CN1C(=O)c2cccc3cccc1c23 | inconclusive: 22.4 µM [activator, single point] | 
61 | CCNC(=O)Nc1nc2ccccc2s1 | inconclusive: 28.2 µM [activator, single point] | 
62 | CCCC(Oc1ccc(Br)cc1)c1nc2c3cc(OC)c(OC)cc3nc(=S)n2[nH]1 (centres undefined) |  | inactive: 4.34%
63 | COC(=O)C(C(C)=O)C1=C/C(=N\S(=O)(=O)c2ccc(C)cc2)c2ccccc2C1=O (centres undefined) |  | inactive: 0%
64 | CCOC(=O)C(=CNc1ccc(-c2ccco2)c(Cl)c1)C(=O)OCC |  | inactive: -31.9%
65 | O=C(CC1C(=O)N(c2ccccc2)C(=S)N1c1ccccc1)c1ccccc1 (centres undefined) | inconclusive: 5.01 µM [activator, single point] | 
66 | COCCNc1nnc(SCC(=O)NNC(=O)c2ccccc2)s1 |  | inactive: -6.38%
67 | C=CCCC(=O)Nc1ccc(Br)cn1 |  | inactive: -23.6%
68 | O=C(O)c1ccc(-c2ccccc2C(F)(F)F)o1 |  | inactive: 5.25%
69 | Nc1nc(NCc2ccco2)nc(N2CCCC2)c1[N+](=O)[O-] |  | inactive: -8.35%
70 | Cc1occc1C(=O)Nc1cccc(C(=O)O)c1 | inconclusive: 10 µM [activator, partial curve] | 
71 | COc1ccc2[nH]cc(CCNC(=O)C3CCCCC3)c2c1 | inconclusive: 11.2 µM [activator, partial curve, poor fit] | 
72 | Cc1ccc(S(=O)(=O)CC(=O)N2CCOCC2)cc1 | inconclusive: 7.94 µM [activator, partial curve, poor fit] | 
73 | O=C(CCCN1C(=O)C(c2ccccc2)Oc2cccnc21)NCCc1ccc(Cl)cc1 (centres undefined) | inconclusive: 1.12 µM [activator, partial curve, poor fit] | 
74 | Cc1cnc(CNC(=O)c2ccc(OC3CCN(C(=O)C4CC4)CC3)cc2)cn1 | inconclusive: 5.01 µM [activator, single point] | 
